Data: publication PMC4593389

Amino acid sequences for entries named in this document (tags omitted). Residues count along the entry.
UniProt P69905: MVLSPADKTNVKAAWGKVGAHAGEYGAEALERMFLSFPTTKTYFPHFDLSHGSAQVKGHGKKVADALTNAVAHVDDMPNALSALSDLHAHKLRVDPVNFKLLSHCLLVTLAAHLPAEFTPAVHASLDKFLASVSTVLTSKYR
UniProt P06733: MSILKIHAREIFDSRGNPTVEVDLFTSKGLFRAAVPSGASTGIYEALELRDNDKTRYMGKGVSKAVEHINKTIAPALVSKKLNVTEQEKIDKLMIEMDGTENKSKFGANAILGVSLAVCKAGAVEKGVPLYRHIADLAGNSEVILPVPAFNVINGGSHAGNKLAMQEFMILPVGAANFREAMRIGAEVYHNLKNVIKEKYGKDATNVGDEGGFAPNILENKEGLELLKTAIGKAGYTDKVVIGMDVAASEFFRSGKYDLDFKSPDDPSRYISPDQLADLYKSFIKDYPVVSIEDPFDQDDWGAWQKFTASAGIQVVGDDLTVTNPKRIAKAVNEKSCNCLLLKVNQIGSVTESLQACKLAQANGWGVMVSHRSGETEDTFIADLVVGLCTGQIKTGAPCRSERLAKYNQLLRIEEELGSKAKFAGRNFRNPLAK
UniProt P04264: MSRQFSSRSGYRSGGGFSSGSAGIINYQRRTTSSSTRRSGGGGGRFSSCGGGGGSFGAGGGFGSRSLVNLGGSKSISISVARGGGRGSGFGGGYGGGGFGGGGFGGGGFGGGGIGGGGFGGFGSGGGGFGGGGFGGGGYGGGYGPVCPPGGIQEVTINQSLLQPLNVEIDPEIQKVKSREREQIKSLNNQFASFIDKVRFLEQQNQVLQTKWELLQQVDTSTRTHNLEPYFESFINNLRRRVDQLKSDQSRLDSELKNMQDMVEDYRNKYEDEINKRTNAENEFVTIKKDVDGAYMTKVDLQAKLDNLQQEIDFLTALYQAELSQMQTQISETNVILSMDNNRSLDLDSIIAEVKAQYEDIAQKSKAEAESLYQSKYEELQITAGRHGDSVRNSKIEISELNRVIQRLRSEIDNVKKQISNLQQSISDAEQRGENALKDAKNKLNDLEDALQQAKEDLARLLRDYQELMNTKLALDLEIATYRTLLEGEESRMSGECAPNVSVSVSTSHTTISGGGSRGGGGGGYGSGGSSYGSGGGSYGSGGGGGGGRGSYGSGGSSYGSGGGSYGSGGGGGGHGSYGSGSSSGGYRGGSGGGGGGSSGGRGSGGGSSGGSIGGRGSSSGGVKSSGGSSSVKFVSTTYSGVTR
UniProt P02649, residues 19-317: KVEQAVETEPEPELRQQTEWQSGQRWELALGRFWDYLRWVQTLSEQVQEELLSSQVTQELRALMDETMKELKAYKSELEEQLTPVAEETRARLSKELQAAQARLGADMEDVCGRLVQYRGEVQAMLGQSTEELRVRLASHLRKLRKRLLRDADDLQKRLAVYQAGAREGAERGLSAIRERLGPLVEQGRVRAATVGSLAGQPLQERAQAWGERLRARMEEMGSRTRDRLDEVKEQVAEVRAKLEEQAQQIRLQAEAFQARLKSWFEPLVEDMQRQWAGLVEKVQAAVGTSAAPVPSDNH
UniProt P10909, residues 23-449: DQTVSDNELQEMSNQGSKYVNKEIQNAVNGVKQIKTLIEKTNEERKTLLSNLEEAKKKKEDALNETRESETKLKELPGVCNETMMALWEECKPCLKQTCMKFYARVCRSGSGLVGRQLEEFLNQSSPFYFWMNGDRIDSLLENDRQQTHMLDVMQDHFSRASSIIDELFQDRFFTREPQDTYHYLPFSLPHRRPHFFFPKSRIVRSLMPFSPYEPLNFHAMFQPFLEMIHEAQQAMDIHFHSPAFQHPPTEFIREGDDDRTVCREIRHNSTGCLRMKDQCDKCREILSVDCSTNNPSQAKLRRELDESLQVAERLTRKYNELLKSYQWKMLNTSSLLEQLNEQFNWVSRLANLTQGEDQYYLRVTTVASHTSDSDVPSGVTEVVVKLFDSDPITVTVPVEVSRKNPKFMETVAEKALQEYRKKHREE
UniProt P08670: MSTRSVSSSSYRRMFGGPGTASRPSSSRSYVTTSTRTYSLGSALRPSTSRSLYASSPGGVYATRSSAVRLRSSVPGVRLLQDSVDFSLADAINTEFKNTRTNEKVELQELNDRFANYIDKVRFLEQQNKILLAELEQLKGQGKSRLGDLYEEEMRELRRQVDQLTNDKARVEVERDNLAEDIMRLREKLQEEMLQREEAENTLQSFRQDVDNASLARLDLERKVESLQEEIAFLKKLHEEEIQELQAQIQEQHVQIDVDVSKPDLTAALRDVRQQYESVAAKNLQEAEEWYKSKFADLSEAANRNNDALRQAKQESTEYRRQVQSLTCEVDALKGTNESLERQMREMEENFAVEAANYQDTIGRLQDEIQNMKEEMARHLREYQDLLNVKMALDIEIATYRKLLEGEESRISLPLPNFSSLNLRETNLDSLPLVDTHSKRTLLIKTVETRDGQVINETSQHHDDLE

The substances below were run against T1, C-reactive protein (human (endogenous in serum)) (UniProt P02741) (assay: affinity purification with mass spectrometry; CRP complexes precipitated from mixed serum with anti-CRP beads as above; two-dimensional electrophoresis, spots that differ twofold or more between patients and healthy controls identified by MALDI TOF/TOF MS).
T1 sequence: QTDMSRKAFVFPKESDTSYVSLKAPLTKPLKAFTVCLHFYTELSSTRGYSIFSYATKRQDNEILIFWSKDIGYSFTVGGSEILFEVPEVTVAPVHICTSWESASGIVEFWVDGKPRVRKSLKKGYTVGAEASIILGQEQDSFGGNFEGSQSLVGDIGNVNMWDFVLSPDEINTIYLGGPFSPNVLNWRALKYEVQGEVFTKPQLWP

binding | Substance
binds | hemoglobin (HBA1/HBA2) (from UniProt P69905 1-142)
binds | enolase 1 (from UniProt P06733 1-434)
binds | keratin, type II cytoskeletal 1 (from UniProt P04264 1-644)
binds | Ig kappa chain C region (human (endogenous in serum))
binds | SAA2 isoform A (human (endogenous in serum))
binds | apolipoprotein E (from UniProt P02649 19-317)
binds | clusterin (entry highly similar to Clusterin, IPI00291262) (from UniProt P10909 23-449)
binds | vimentin (from UniProt P08670 1-466)

These are yes or no findings as the source states them, for the method shown. In cells and extracts the contact can be indirect. A yes stands for co-enrichment or nearness to the bait. Other partners may have been found.
